Test results reported in PubChem BioAssay AID1347426 (Functional Genomics Laboratory (NCATS/FGL), 2020).
The campaign covered roughly 31,000 sequences. About 1,400 (4.5%) were called active.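 How the source made its calls: active means median seed-adjusted z-score above 1 or below -1; inactive means the rest.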 This is one part of the list.

Test: Novel Modifiers of Survival Motor Neuron (SMN) Protein: Gene Identification via Genome-wide siRNA Screen;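 further: luminescence tracks full-length SMN protein made from the SMN2 reporter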
Settings: HEK293T SMN2-luciferase reporter, siRNA knockdown, 72 h; actives lie on both sides
In short: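 Genome-wide siRNA screen (10418 genes, 3 siRNAs each, 1 pmol per well) by reverse transfection in HEK293T cells stably carrying an SMN2-luciferase reporter; luminescence after 72 hours, normalized to negative-control siRNA, log10-transformed, MAD-scored.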
With AGAUCAAGGCGGUCAUCAUTT against ACTL7B the median seed-adjusted z-score was inactive: 0.572.
For GGACAAACACGGACAGUAUTT against EPHB4, the median seed-adjusted z-score was inactive: -0.143.
For CACUUUCCUGGGUAUUGUATT against ALDH3A2, the median seed-adjusted z-score was inactive: -0.0751.
For ACAUCGUUGUGGUCAAGGUTT against ADAMTS15, the median seed-adjusted z-score was inactive: 0.765.
With GGAGAUCUUUGAGUACCUATT against BRPF1 the median seed-adjusted z-score was inactive: 0.
With GGGCAUUUUCUGUAUCAGATT against SGMS2 the median seed-adjusted z-score was inactive: -0.492.
In the case of CACUAGAAAUAACAAUGGATT against TMPRSS11D, the median seed-adjusted z-score is reported as inactive: -0.0643.
For GACUCCAAAUUUUCGAAUUTT against GPD1L, the median seed-adjusted z-score was inactive: 0.11.
With CAGGCACUUUGUUUAUACATT against SERPINB8 the median seed-adjusted z-score was inactive: 0.371.
With CAACCAGAAUUACUGCUAUTT against PCDH10 the median seed-adjusted z-score was inactive: -0.488.
For GCGAUAUUAUCAUACUGGATT against ZNF470, the median seed-adjusted z-score was active: -1.26.
With CAAUGACCAUUGCUAAGAATT against HSPD1 the median seed-adjusted z-score was inactive: -0.146.
With GUUUGAUGGUGAUAAGAAATT against PGD the median seed-adjusted z-score was active: -1.55.
With GACAGACUGCUAUAACAAUTT against TTC9C the median seed-adjusted z-score was inactive: -0.571.
With GGACCACGAUGAUCAUUGATT against CRMP1 the median seed-adjusted z-score was inactive: -0.354.
In the case of GGACUGCUUCAUAUACUGATT against GLT8D1, the median seed-adjusted z-score is reported as active: 1.22.
With CUCUGGAUUUUGAUAGUUUTT against PPARGC1A the median seed-adjusted z-score was inactive: -0.0953.
In the case of CCCUUGUAGGUAGCUCCUATT against SLC37A4, the median seed-adjusted z-score is reported as inactive: -0.00202.
With GGAAGGUGAUUGAUCCUAATT against HNRNPD the median seed-adjusted z-score was inactive: 0.504.
In the case of CCUUCAAAUAUUCUAGUAATT against ZNF670, the median seed-adjusted z-score is reported as inactive: 0.
With CGAGCAGUUUGGAGACGAATT against DNAJC5B the median seed-adjusted z-score was inactive: 0.
In the case of CCACGUUUCUCCAGUCAAATT against CDH17, the median seed-adjusted z-score is reported as inactive: -0.167.
For AGAUAUUACAGUCAACUUUTT against UCRC, the median seed-adjusted z-score was inactive: -0.93.
For GGCGGACCAUCUUCUGGAUTT against FOXP3, the median seed-adjusted z-score was inactive: -0.421.
For GGCCUAUCAUCGAAAACCATT against SYT10, the median seed-adjusted z-score was inactive: 0.
For GUGUAAAGCUUGUUCGAAUTT against CTNNA1, the median seed-adjusted z-score was inactive: -0.0588.
For CAACUGUUCCAACAACAAUTT against HAVCR1, the median seed-adjusted z-score was inactive: -0.306.
For GGAAGAUUGCAGAUGAGAATT against SHMT1, the median seed-adjusted z-score was inactive: 0.179.
For GGAUGUAGGUUCUUUUGAATT against GGPS1, the median seed-adjusted z-score was inactive: -0.372.
In the case of CGACGAAUUUGUGACAAGATT against ALDH1L2, the median seed-adjusted z-score is reported as inactive: 0.
For AAUCCUUGGUGAUGAUUUUTT against EPN1, the median seed-adjusted z-score was inactive: 0.
In the case of CGAUCUUGCUAAUUUAGGUTT against MATR3, the median seed-adjusted z-score is reported as inactive: -0.259.
With CCAACUAUCCUAAAUCAGUTT against NSUN3 the median seed-adjusted z-score was inactive: 0.302.
For GGAAAUGCUUCUACCAGAATT against ZNF25, the median seed-adjusted z-score was inactive: -0.145.
In the case of CACUAUUCCCAGAUCUUUATT against SMAD5, the median seed-adjusted z-score is reported as inactive: -0.701.
For GGAACAAGAUUGUCCUGAATT against UBL5, the median seed-adjusted z-score was inactive: -0.706.
With GCCUUCAAUUUUCAUACAATT against ZNF19 the median seed-adjusted z-score was inactive: 0.
In the case of GGAUGUUCGUGGUAGCCGATT against ATP2A3, the median seed-adjusted z-score is reported as inactive: -0.28.
For CAGAUUAUCUUCGUUCAAATT against PAFAH1B1, the median seed-adjusted z-score was inactive: 0.391.
With GGCAGAGAGUAAACAAGCATT against MIF4GD the median seed-adjusted z-score was inactive: 0.373.
With GAGGAUUAAUUUAAUCCUATT against GNE the median seed-adjusted z-score was inactive: 0.393.
For GCUUUAACGUGUCUGUGCATT against SLC25A5, the median seed-adjusted z-score was inactive: -0.0501.
With CCACACUGGUGAUAGACCATT against ZNF384 the median seed-adjusted z-score was inactive: -0.132.
With GGAGUACAGCAUCUCGGCATT against CACNG1 the median seed-adjusted z-score was inactive: -0.452.
In the case of GCAUGGACUUUGCACCAAATT against SKIV2L, the median seed-adjusted z-score is reported as inactive: 0.209.
For ACCUCGCGCUAUUACCUCATT against KCTD12, the median seed-adjusted z-score was inactive: 0.431.
For GCCUAUCAGAAGCUCAUUUTT against ITGB8, the median seed-adjusted z-score was inactive: -0.0936.
In the case of GAAUGAACAGGAGCUGUUATT against ADPGK, the median seed-adjusted z-score is reported as inactive: 0.373.
With GGGACAUUUCCAAAUGGAATT against ARL6IP5 the median seed-adjusted z-score was inactive: -0.202.
In the case of CUGCAGGAAUUCUAUGAAATT against COPS2, the median seed-adjusted z-score is reported as inactive: 0.202.
For GCUAUUUGCUGGCUACAAATT against POLR2J3, the median seed-adjusted z-score was active: -5.42.
With GCAGAGAGAUGAAGAUCUATT against ITGA5 the median seed-adjusted z-score was inactive: 0.915.
In the case of GAUACUAGCUAUUUUGACATT against MAST2, the median seed-adjusted z-score is reported as inactive: 0.27.
In the case of GUGUGAGGUUUGUCAGAAATT against ZNF552, the median seed-adjusted z-score is reported as inactive: 0.437.
